Source: patent US20100183625A1, “Treatment of Mucositis with Kallikrein Inhibitors” (Dyax Corp., priority 2009, published 2010)
No constants are given. Whether binding was seen depends on the method and setting. Some entries that bind do so weakly or less than the wild type. Values belong to the binder of their own block, whether it stands above or below them.

Chains of the proteins cited; added tags and fusions are not shown. Lines headed by an entry give the natural chain unless they say otherwise; changes in a name come on top.
UniProt P03952: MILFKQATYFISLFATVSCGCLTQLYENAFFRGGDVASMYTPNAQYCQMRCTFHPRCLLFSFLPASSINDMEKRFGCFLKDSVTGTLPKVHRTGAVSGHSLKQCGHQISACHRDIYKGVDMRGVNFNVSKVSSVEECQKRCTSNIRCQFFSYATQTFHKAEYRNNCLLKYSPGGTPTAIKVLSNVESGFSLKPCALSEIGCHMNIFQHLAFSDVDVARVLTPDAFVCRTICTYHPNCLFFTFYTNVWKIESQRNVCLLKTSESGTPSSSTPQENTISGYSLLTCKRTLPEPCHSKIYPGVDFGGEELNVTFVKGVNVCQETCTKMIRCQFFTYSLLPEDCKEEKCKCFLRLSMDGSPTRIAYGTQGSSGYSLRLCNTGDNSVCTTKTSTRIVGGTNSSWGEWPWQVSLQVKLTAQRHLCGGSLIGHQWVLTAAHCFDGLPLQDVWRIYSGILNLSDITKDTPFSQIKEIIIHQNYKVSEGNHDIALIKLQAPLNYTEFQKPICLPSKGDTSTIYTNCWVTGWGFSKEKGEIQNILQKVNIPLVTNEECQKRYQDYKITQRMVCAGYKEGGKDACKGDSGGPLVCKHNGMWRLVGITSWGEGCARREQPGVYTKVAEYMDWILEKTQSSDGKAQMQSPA

Assays:
[1] = biological target: human plasma kallikrein (human) (UniProt P03952); assay: steady state enzyme kinetics, IgG
[2] = biological target: human plasma kallikrein (human) (UniProt P03952); assay: BIACORE SPR competition: 1 uM EPI-KAL2 with 100 nM pKal over captured X81-B01 or X67-D03 IgG

- binding [1]: binds
B1: X67-C03 (antibody, human IgG1, V domains shown)
VH: EVQLLESGGGLVQPGGSLRLSCAASGFTFSAYSMIWVRQAPGKGLEWVSYIRPSGGRTTYADSVKGRFTISRDNSKNTLYLQMNSLRAEDTAVYYCARGGLLLWMRELKSNYFDYWGQGTLVTVSS
VL: DIQMTQSPSSLSAFVGDRVTITCRASQPIDNYLNWYHQKPGKAPKLLIYAASRLQSGVPSRLSGSGFGTDFTLTISSLQPEDFGNYYCQQSYTVPYTFGGGTKVEIR

- binding [2]: binds
B2: EPI-KAL2 (designed binder)
chain: EAMHSFCAFKADDGPCRAAHPRWFFNIFTRQCEEFSYGGCGGNQNRFESLEECKKMCTRD
